Where a name gives a salt, the structure may show the parent alone. Some of the results follow. Hit calls seldom repeat between salt and free forms of one compound.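 In K562 cells expressing nanoluciferase-fused kinases, luminescence was recorded at 4 h intervals between 2 and 18 h, normalized as percent of control with DMSO at 100% and a positive control at 0%. A significant (2 sigma) signal drop marks a time point as decreased. The authors' rule for a hit is not shown and takes in more than the number of time points.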
system: BRAF_V600E; test: kinase-Nluc reporter destabilization hit call (1 = scored as downregulated) (binary); higher = compound decreases kinase abundance; settings: K562; 2-18 h

The chains behind the UniProt entries cited, without tags or fusion partners. Where a name states a change or a piece, a line headed by the entry shows the natural chain unless it says otherwise.
UniProt Q06187: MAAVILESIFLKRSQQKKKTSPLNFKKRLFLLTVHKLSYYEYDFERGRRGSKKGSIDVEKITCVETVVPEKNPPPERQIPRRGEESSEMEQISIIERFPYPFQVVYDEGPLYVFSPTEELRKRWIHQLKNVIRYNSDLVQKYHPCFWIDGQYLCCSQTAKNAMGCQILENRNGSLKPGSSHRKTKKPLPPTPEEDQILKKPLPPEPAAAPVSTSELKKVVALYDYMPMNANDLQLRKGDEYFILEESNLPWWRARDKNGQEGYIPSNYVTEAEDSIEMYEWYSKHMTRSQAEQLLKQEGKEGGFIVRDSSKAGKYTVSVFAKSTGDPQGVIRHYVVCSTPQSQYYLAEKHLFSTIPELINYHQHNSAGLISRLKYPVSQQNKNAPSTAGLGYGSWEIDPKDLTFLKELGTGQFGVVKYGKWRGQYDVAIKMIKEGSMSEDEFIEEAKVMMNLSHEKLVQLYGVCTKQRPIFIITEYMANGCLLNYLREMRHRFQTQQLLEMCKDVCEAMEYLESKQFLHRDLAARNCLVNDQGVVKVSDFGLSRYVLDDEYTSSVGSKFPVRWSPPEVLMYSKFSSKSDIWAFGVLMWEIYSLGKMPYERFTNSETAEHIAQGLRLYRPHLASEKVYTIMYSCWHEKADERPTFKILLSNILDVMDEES

kinase-Nluc reporter destabilization hit call, inactive:
N#Cc1ccc2[nH]c(O)c(-c3ccc(CN4CCOCC4)cn3)c2c1 (10 µM) 0
O=C1NCCc2[nH]c(-c3ccnc(-c4cnc5ccccc5c4)c3)cc21 (10 µM) 0
Oc1cc(O)cc(/C=C/c2ccc(O)c(O)c2)c1 [Piceatannol] (10 µM) 0
Cn1c(=O)n(-c2ccc(C(C)(C)C#N)cc2)c2c3cc(-c4cnc5ccccc5c4)ccc3ncc21 [Dactolisib (Tosylate)] (10 µM) 0
CC[C@H](CO)Nc1nc(NCc2ccccc2)c2ncn(C(C)C)c2n1 [Seliciclib] (10 µM) 0
CN(C)C[C@@H]1CCn2cc(c3ccccc32)C2=C(C(=O)NC2=O)c2cn(c3ccccc23)CCO1 [Ruboxistaurin (hydrochloride)] (10 µM) 0
CCc1nc(-c2cccc(C)c2)c(-c2ccnc(NC(=O)c3ccccc3)c2)s1 (10 µM) 0
CC(C)(/C=C(\C#N)C(=O)N1CCC[C@@H](n2nc(-c3ccc(Oc4ccccc4)cc3F)c3c(N)ncnc32)C1)N1CCN(C2COC2)CC1 (2.5 µM) 0
CCCn1cnc2c(NCc3ccccc3)nc(NC(CC)CO)nc21 (stereo unspecified) [Ca2+ channel agonist 1] (2.5 µM) 0
Brc1c(Br)c(Br)c2n[nH]nc2c1Br (10 µM) 0
Nc1nc(OCC2CCCCC2)c2[nH]cnc2n1 (10 µM) 0
O=C(Nc1ccc(-c2ccnc(Nc3ccc(N4CCOCC4)cc3)n2)cc1)C1CCCN1 (stereo unspecified) (10 µM) 0
COc1nccc(-c2c(-c3ccc(F)cc3)ncn2C2CCC(O)CC2)n1 (stereo unspecified) (10 µM) 0
COc1ccc(COc2ccc(Cc3cnc(N)nc3N)cc2OC)cc1 (10 µM) 0
CN1CCN(c2ccc(Nc3cc(-c4cccc(-n5ccc6cc(C7CC7)cc(F)c6c5=O)c4CO)cn(C)c3=O)nc2)CC1 (2.5 µM) 0
C=CC(=O)N1CCC[C@@H](n2nc(-c3ccc(Oc4ccccc4)cc3)c(C(N)=O)c2N)C1 [Btk inhibitor 2] (10 µM) 0
Cc1c(NC(=O)c2cc3c(s2)CCCC3)cccc1-c1cn(C)c(=O)c(Nc2ccc([C@@H]3C(=O)N(C)CCN3C)cc2)n1 (10 µM) 0
CCOc1ccn(-c2ccc(F)cc2)c(=O)c1C(=O)Nc1ccc(Oc2ccnc(N)c2Cl)c(F)c1 (10 µM) 0
CCN1CCN(c2ccc(Nc3cc(N(C)C(=O)Nc4c(Cl)c(OC)cc(OC)c4Cl)ncn3)cc2)CC1 [Infigratinib] (10 µM) 0
Cc1[nH]c(/C=C2\C(=O)Nc3ccc(S(=O)(=O)Cc4c(Cl)cccc4Cl)cc32)c(C)c1C(=O)N1CCC[C@@H]1CN1CCCC1 (2.5 µM) 0

target: BTK (UniProt Q06187); test: as above; settings: K562; 2-18 h

kinase-Nluc reporter destabilization hit call, inactive:
O=C(NOC[C@H](O)CO)c1ccc(F)c(F)c1Nc1ccc(I)cc1F (2.5 µM) 0
CCCCNc1ncc(-c2ccc(CN3CCOCC3)cn2)c(NC2CCC(O)CC2)n1 (stereo unspecified) (10 µM) 0
O=C(Nc1cc(C(F)(F)F)ccc1N1CCN(Cc2ccccn2)CC1)c1ccc(-c2ccncc2)o1 (10 µM) 0
CC[C@H](CO)Nc1nc(NCc2ccccc2)c2ncn(C(C)C)c2n1 [Seliciclib] (10 µM) 0
COC(=O)c1ccc2c(C(=Nc3ccc(N(C)C(=O)CN4CCN(C)CC4)cc3)c3ccccc3)c(O)[nH]c2c1 [Nintedanib] (2.5 µM) 0
COc1cc(F)cc([C@@H](CO)NC(=O)[C@@H](C)N2Cc3ccc(-c4nc(NC5CCOCC5)ncc4Cl)cc3C2=O)c1 [ERK1/2 inhibitor 2] (10 µM) 0
CC(C)c1ccc2oc3nc(N)c(C(=O)O)cc3c(=O)c2c1 [Amlexanox] (10 µM) 0
CCOc1cc2ncc(-c3cc(N)nc(F)c3)n2cc1S(=O)(=O)C(C)(C)C (10 µM) 0
CCCn1cnc2c(NCc3ccccc3)nc(NC(CC)CO)nc21 (stereo unspecified) [Ca2+ channel agonist 1] (2.5 µM) 0
Brc1c(Br)c(Br)c2n[nH]nc2c1Br (10 µM) 0
Nc1nc(OCC2CCCCC2)c2[nH]cnc2n1 (10 µM) 0
COc1ccc(Oc2cc(NCCC(F)(F)F)c3ncc(-c4ccc(C(=O)NC5CC5)c(C)c4)n3n2)c(F)c1F (2.5 µM) 0
COc1cc(C(=O)NC2CCN(C)CC2)c(F)cc1Nc1ncc2c(n1)N(C1CCCC1)CC(F)(F)C(=O)N2C [TAK-960 (dihydrochloride)] (2.5 µM) 0
COc1ccc(NC(=O)N2CCN(c3nc(N)nc4c3cnn4C)[C@@H](C)C2)c(C)c1 (10 µM) 0
O=C(Nc1ccc(-c2ccnc(Nc3ccc(N4CCOCC4)cc3)n2)cc1)C1CCCN1 (stereo unspecified) (10 µM) 0
NC(=O)c1ccc2nc(-c3ccc(Oc4ccc(Cl)cc4)cc3)[nH]c2c1 (10 µM) 0
COc1ccc(COc2ccc(Cc3cnc(N)nc3N)cc2OC)cc1 (10 µM) 0
CCn1c(=O)c2cc(C(N)=O)c(N)nc2n(C2CC2)c1=O (10 µM) 0
COc1cc(C(=O)NC2CCN(C)CC2)ccc1Nc1ncc2c(n1)N(C1CCCC1)CC(F)(F)C(=O)N2C (10 µM) 0
CN1CCN(S(=O)(=O)c2ccc(-c3cnc(N)c(C(=O)Nc4cccnc4)n3)cc2)CC1 (10 µM) 0
Cc1cccc([C@@H](CO)NC(=O)[C@@H](C)N2Cc3ccc(-c4nc(NC5CCOCC5)ncc4Cl)cc3C2=O)c1 [ERK1/2 inhibitor 1] (10 µM) 0
COc1cc(CCc2cc(-c3nc4ccc(N5CCN(C)CC5)cc4[nH]3)n[nH]2)cc(OC)c1 (10 µM) 0
Cc1cc(CS(=O)(=O)c2ccccc2)cc(OCc2ccc(CN3CCC[C@@H]3CO)cc2)c1 [PF-543 (Citrate)] (10 µM) 0
Cc1[nH]c(/C=C2\C(=O)Nc3ccc(S(=O)(=O)Cc4c(Cl)cccc4Cl)cc32)c(C)c1C(=O)N1CCC[C@@H]1CN1CCCC1 (2.5 µM) 0
Cc1cc(F)c(C(=O)Nc2cccc(-c3nncn3C(C)C)n2)cc1-n1cnc(C2CC2)c1 [Selonsertib] (10 µM) 0
COCCOc1cc2nccc(Nc3n[nH]c(C)c3C)c2cc1S(=O)(=O)C(C)(C)C [RIP2 kinase inhibitor 2] (2.5 µM) 0

Reference: the supplement of paper PMC12823440, “Inhibitors supercharge kinase turnover through native proteolytic circuits” (Nature, 2025)
